This passage reports binding results from patent publication US20110243944A1 (SHANGHAI KEXIN BIOTECH, published 2011).

The experiment concerns the target FcγRII receptor. Description: flow cytometry; 5 µg RIG on 1*10^6 HMC-1 cells, detected with FITC labeled anti human IgG antibody. For orientation: A flow cytometer gives signals particle by particle.

Results are given in words; binding and its absence hold for the method and conditions named. A result given as binding can be weak or reduced; the word gives no strength. Where a sequence is shown, tags or fusion partners need not be part of it.

B1: fusion protein RIG (Fc fusion)
chain: MRRASRDYTKYLRGSEEMGGGPGAPHEGPLHAPPPPAPHQPPAASRSMFVALLGLGLGQVVCSVALFFYFRAQMDPNRISEDGTHCIYRILRLHENADFQDTTLESQDTKLIPDSCRRIKQAFQGAVQKELQHIVGSQHIRAEKAMVDGSWLDLAKRSKLEAQPFAHLTINATDIPSGSHKVSLSSWYHDRGWAKISNMTFSNGKLIVNQDGFYYLYANICFRHHETSGDLATEYLQLMVYVTKTSIKIPSSHTLMKGGSTKYWSGNSEFHFYSINVGGFFKLRSGEEISIEVSNPSLLDPDQDATYFGAFKVRDIDGSEPKSCDKTHTCPPCPAPELLGGPSVFLFPPKPKDTLMISATPEVTCVVVDVSHEDPEVKFMWYVDGVEVHNAKTKPAEEQYNSTYAVVSVLTVLHQDWLNGKEYKCKVSNKALPAPIEKTISKAKGQPAEPQVYTLPPSRDELTYNQVSLTCLVKGFYPSDIAVEWESNGQPENNYKTTPPVLDSDGSFFLYSKLTVDKSRWQQGNVFSCSVMHEALHNHYTQKSLSLSPGK
notes: also called RANKL-Fcγ fusion protein; RIG protein
B1: the binding result is on record as “binds”.
